# The list does not hold the whole screen: it is rich in T/C values a quarter to a half above the control, in often repeated tests (any T/C) and in doses without a T/C. Further doses and runs are listed elsewhere. T/C: endpoint of the treated group in % of that of the vehicle group. Some entries give survivors of the animals treated and no T/C: the source files T/C as zero there, which appears to mark a toxic dose or a test without result, not a measured value. Some doses without a T/C left all or most animals alive at the check, yet need not have been tolerated: survival well below the control is almost never listed, so the zero probably covers shortened survival too. Survivors were counted at the toxicity check, usually on the fifth day, unless a day is given; later deaths do not show. Schedules are NCI's codes, read here as Q, the interval in days (D) or hours (H), X, the number of doses. Some schedule codes hold Z or #, which are not explained here. Some structures stand for samples that the source files as different forms (salt, stereo form or complex); doses refer to the form tested. Some entries were tested several times; their values stand side by side, smallest first. Where survival is the endpoint, this PubChem deposit counts one and a half times the control or more as active, and values a quarter to a half above the control carry no call in these data; other NCI protocols may use other cut-offs. Some T/C values are followed by the survivors on the day toxicity was checked, most often the fifth; without a count, all were alive then.
# Tested on: L1210 leukemia ip in BDF1 mice, survival T/C
# Assay: NCI In Vivo Anticancer Drug Screen. Data for tumor model L1210 Leukemia (intraperitoneal) in B6D2F1 (BDF1) mice
# Conditions: higher T/C = longer survival
smiles,measurement,setting,value
CSc1ncnc2c1ncn2N(CCCl)C(C)=O,survivor count,"T/C endpoint: mean survival time, dose: 200.0 mg/kg/injection, schedule: Q01DX001 (ip), vehicle: other",1 of 6
same,survivor count,"T/C endpoint: mean survival time, dose: 400.0 mg/kg/injection, schedule: Q01DX001 (ip), vehicle: other",1 of 6
COc1cc(NC(=O)O/N=C/c2ccccn2)cc(OC)c1OC,survivor count,"T/C endpoint: mean survival time, dose: 400.0 mg/kg/injection, schedule: Q01DX009 (ip), vehicle: saline with Tween-80",5 of 6
CC(C)(C)NC(=O)CCC(CC(=O)NC(C)(C)C)S(=O)(=O)O (stereo unspecified),survivor count,"T/C endpoint: mean survival time, dose: 400.0 mg/kg/injection, schedule: Q04DX003 (ip), vehicle: saline",0 of 6
Cc1c(-[n+]2ccccc2)[nH]c2ccccc12,survivor count,"T/C endpoint: mean survival time, dose: 200.0 mg/kg/injection, schedule: Q01DX001 (ip), vehicle: saline",0 of 4
same,survivor count,"T/C endpoint: mean survival time, dose: 400.0 mg/kg/injection, schedule: Q01DX001 (ip), vehicle: saline",0 of 4
O=C(Nc1ccc(C2=NCCN2)cc1)c1cccc(C(=O)Nc2ccc(C3=NCCN3)cc2)c1,T/C,"T/C endpoint: mean survival time, dose: 3.75 mg/kg/injection, schedule: Q01DX Z (ip), vehicle: methylcellulose (MC)",147 % of control
same,T/C,"T/C endpoint: mean survival time, dose: 3.75 mg/kg/injection, schedule: Q01DX Z (ip), vehicle: saline",128 % of control
same,T/C,"T/C endpoint: mean survival time, dose: 7.5 mg/kg/injection, schedule: Q01DX009 (ip), vehicle: saline",144 % of control
same,T/C,"T/C endpoint: mean survival time, dose: 7.5 mg/kg/injection, schedule: Q01DX Z (ip), vehicle: saline",144 % of control
same,T/C,"T/C endpoint: mean survival time, dose: 8.0 mg/kg/injection, schedule: Q01DX010 (ip), vehicle: saline",136 % of control
same,T/C,"T/C endpoint: mean survival time, dose: 14.0 mg/kg/injection, schedule: Q07DX Z (ip), vehicle: methylcellulose (MC)",126 % of control
same,T/C,"T/C endpoint: mean survival time, dose: 16.0 mg/kg/injection, schedule: Q01DX Z (sc), vehicle: methylcellulose (MC)",134 % of control
same,survivor count,"T/C endpoint: mean survival time, dose: 20.0 mg/kg/injection, schedule: Q01DX Z (iv), vehicle: other",1 of 7 and 3 of 7
same,T/C,"T/C endpoint: mean survival time, dose: 64.0 mg/kg/injection, schedule: Q01DX Z (ip), vehicle: methylcellulose (MC)",137 % of control
same,T/C,"T/C endpoint: mean survival time, dose: 120.0 mg/kg/injection, schedule: Q01DX009 (ip), vehicle: saline",130 % of control [4 of 6 alive]
same,T/C,"T/C endpoint: mean survival time, dose: 120.0 mg/kg/injection, schedule: Q01DX Z (ip), vehicle: carboxymethylcellulose (CMC)",135 % of control [5 of 6 alive]
same,survivor count,"T/C endpoint: mean survival time, dose: 224.0 mg/kg/injection, schedule: Q07DX Z (ip), vehicle: methylcellulose (MC)",3 of 7
same,survivor count,"T/C endpoint: mean survival time, dose: 240.0 mg/kg/injection, schedule: Q01DX Z (ip), vehicle: saline",1 of 6
same,survivor count,"T/C endpoint: mean survival time, dose: 448.0 mg/kg/injection, schedule: Q07DX Z (ip), vehicle: methylcellulose (MC)",1 of 7
same,survivor count,"T/C endpoint: mean survival time, dose: 480.0 mg/kg/injection, schedule: Q01DX Z (ip), vehicle: saline",0 of 6
same,survivor count,"T/C endpoint: mean survival time, dose: 960.0 mg/kg/injection, schedule: Q01DX Z (oral), vehicle: methylcellulose (MC)",4 of 6
c1ccc2nc(CCC3CCCCN3)ccc2c1 (stereo unspecified),survivor count,"T/C endpoint: mean survival time, dose: 500.0 mg/kg/injection, schedule: Q01DX Z (ip), vehicle: methylcellulose (MC)",3 of 6
same,survivor count,"T/C endpoint: mean survival time, dose: 750.0 mg/kg/injection, schedule: Q01DX Z (ip), vehicle: methylcellulose (MC)",0 of 6
same,survivor count,"T/C endpoint: mean survival time, dose: 1000.0 mg/kg/injection, schedule: Q01DX Z (ip), vehicle: methylcellulose (MC)",0 of 6
CCOC(=O)c1[nH]c(C)nc1/N=N/N(C)C,T/C,"T/C endpoint: median survival time, dose: 50.0 mg/kg/injection, schedule: Q01DX009 (ip), vehicle: Klucel (hydroxypropylcellulose) (HPC)",127 % of control
same,T/C,"T/C endpoint: median survival time, dose: 100.0 mg/kg/injection, schedule: Q01DX009 (ip), vehicle: Klucel (hydroxypropylcellulose) (HPC)",133 % of control
same,T/C,"T/C endpoint: median survival time, dose: 200.0 mg/kg/injection, schedule: Q01DX009 (ip), vehicle: Klucel (hydroxypropylcellulose) (HPC)",144 % of control [5 of 6 alive]
CC1CCCCC1C(=O)N1CCCC1 (stereo unspecified),survivor count,"T/C endpoint: mean survival time, dose: 400.0 mg/kg/injection, schedule: Q04DX002 (ip), vehicle: saline",1 of 3
O=C(O)COc1ccc(Cl)cc1CC(Cl)CCl (stereo unspecified),survivor count,"T/C endpoint: mean survival time, dose: 200.0 mg/kg/injection, schedule: Q01DX009 (ip), vehicle: Klucel (hydroxypropylcellulose) (HPC)",3 of 6
same,survivor count,"T/C endpoint: mean survival time, dose: 400.0 mg/kg/injection, schedule: Q01DX009 (ip), vehicle: Klucel (hydroxypropylcellulose) (HPC)",0 of 6

# From PubChem BioAssay AID248 (DTP/NCI, 2004)
